# Assay results from patent publication US20210009713A1 (MIDWESTERN UNIVERSITY, published 2021).
# Results are given in words; binding and its absence hold for the method and conditions named. Some entries that bind do so weakly or less than the wild type.
# T1: aspartyl (asparaginyl) β-hydroxylase (ASPH) (UniProt Q12797 75-758, limits assumed)
# T1 construct: also called ASPH protein
# T1 sequence (looked up): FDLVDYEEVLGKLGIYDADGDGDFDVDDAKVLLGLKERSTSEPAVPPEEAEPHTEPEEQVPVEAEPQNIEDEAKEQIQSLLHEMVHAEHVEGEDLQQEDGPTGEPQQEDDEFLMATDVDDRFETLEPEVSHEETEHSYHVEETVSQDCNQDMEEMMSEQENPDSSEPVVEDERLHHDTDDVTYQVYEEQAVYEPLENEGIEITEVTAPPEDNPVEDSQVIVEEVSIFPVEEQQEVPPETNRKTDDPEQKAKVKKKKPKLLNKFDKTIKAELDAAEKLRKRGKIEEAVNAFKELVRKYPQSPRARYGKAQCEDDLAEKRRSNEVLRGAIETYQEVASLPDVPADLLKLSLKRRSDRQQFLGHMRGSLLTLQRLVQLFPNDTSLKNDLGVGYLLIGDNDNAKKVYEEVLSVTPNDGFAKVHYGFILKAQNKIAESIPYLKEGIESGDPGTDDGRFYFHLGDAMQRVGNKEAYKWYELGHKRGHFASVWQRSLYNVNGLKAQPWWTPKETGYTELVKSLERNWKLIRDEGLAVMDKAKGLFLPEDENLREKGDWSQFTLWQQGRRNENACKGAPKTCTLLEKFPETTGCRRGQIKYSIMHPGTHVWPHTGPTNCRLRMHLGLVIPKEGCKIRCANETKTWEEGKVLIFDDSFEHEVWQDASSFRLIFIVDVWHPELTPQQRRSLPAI
# Legend:
# [1] = target: T1, aspartyl (asparaginyl) β-hydroxylase …; assay: SPR, antibody captured via Protein G, ASPH as analyte
# Procedure: The interaction between ASPH and a set of 6 antibodies were characterized by Essai Sciences LLC (Stillwater, Okla.) on a SensiQ Pioneer SPR Platform. The COOH2 sensor chip, which contains a planar dextran surface, was used for target immobilization. The buffer system was 10 mM HEPES, pH 7.4, 150 mM NaCl, and 0.01% Tween-20.
# All channels of a COOH2 sensor chip were activated with a five-minute injection of 40 mM EDC and 10 mM NHS. Protein G was then injected across channels 1 and 2. 1 M ethanolamine, pH 8.0 was then injected across all three channels. Approximately 1000 response units of Protein G were captured on both channels 1 and 2 (FIG. 18). For each antibody-ASPH interaction, the antibody was injected on channel 1, leaving channels 2 and 3 as a Protein G reference and empty channel reference, respectively. After antibody capture, ASPH was injected at a single concentration. Following injection of ASPH, all three channels were injected with 10 mM NaOH for one minute to regenerate the Protein G surface. This was done twice for each antibody, at each tested concentration of ASPH.
# [2] = target: T1, aspartyl (asparaginyl) β-hydroxylase …; assay: SPR (SensiQ Pioneer), antibody captured via Protein G on a COOH2 chip, ASPH injected as analyte at 15.6-500 nM
binder,measurement,setting,value
"5H4/5K3 (antibody, V domains shown, The entries are translated variable regions that still carry the leader and the start of the constant region (GQPK... / GDPV...)) VH: QSLEESGGDLVKPGASLTLTCKASGFDFSSNAMCWVRQAPGKGPEWIACIDNGDGSTDYATWAKGRFTISKTSSTTVTLQMTSLTAADTATYFCTRNFNLWGQGTLVTVSS VL: AQVLTQTASSVSAAVGGTVTISCQSSQSVYDNNRLAWFQQKPGQPPKLLIYETSKLASGVPLRFKGSGSGTQFTLTISDLECDDAATYYCLGSYSGYIYTFGGGTEVVVKG",binding,[1],binds
same,binding,[2],binds
